Measurements: PubChem BioAssay AID330 (DTP/NCI, 2004)
The list shows only some results of the screen, not a fair sample: it is rich in T/C values a quarter to a half above the control, in often repeated tests (any T/C) and in doses without a T/C. Further doses and runs are listed elsewhere. T/C gives the treated animals as a percentage of the vehicle group. Some doses have a count of surviving animals in place of a T/C: the source files T/C as zero there, which appears to mark a toxic dose or a test without result, not a measured value. Some doses without a T/C left all or most animals alive at the check, yet need not have been tolerated: survival well below the control is almost never listed, so the zero probably covers shortened survival too. Counts of survivors are from the toxicity check (mostly the fifth day) where no day follows; animals may have died later. Schedules are NCI's codes, taken here to give the interval after Q, in days (D) or hours (H), and the number of doses after X. Additions like (4×) stand for listed records that agree. Some doses were run more than once; the results are listed from low to high. Where survival is the endpoint, the PubChem record calls one and a half times the control and up active, and a quarter to a half above the control has no call in these data; cut-offs in other NCI protocols can differ. Some T/C values carry the count of animals alive at the toxicity check (mostly the fifth day); where none is given, no animal had died by that day.

System: P388 leukemia ip, CD2F1 mice, survival T/C
Assay: NCI In Vivo Anticancer Drug Screen. Data for tumor model P388 Leukemia (intraperitoneal) in CD2F1 (CDF1) mice
Conditions: T/C endpoint: median survival time, higher T/C = longer survival
[1] = dose: 50.0 mg/kg/injection, schedule: Q01DX009 (ip), vehicle: saline with Tween-80
[2] = dose: 400.0 mg/kg/injection, schedule: Q01DX009 (ip), vehicle: saline with Tween-80
[3] = dose: 100.0 mg/kg/injection, schedule: Q01DX009 (ip), vehicle: saline with Tween-80
[4] = dose: 200.0 mg/kg/injection, schedule: Q01DX009 (ip), vehicle: saline with Tween-80
[5] = dose: 4.0 mg/kg/injection, schedule: Q01DX009 (ip), vehicle: other
[6] = dose: 120.0 mg/kg/injection, schedule: Q01DX005 (ip), vehicle: saline with Tween-80
[7] = dose: 240.0 mg/kg/injection, schedule: Q01DX005 (ip), vehicle: saline with Tween-80
[8] = dose: 200.0 mg/kg/injection, schedule: Q01DX005 (ip), vehicle: Klucel (hydroxypropylcellulose) (HPC)
[9] = dose: 12.5 mg/kg/injection, schedule: Q01DX009 (ip), vehicle: saline with Tween-80

## CC1(C)CC(C#N)CC(C)(C)N1O
dose: 200.0 mg/kg/injection, schedule: Q04DX003 (ip), vehicle: Klucel (hydroxypropylcellulose) (HPC)
  survivor count: 0 of 6
dose: 400.0 mg/kg/injection, schedule: Q04DX003 (ip), vehicle: Klucel (hydroxypropylcellulose) (HPC)
  survivor count: 0 of 6

## COc1ccc(C(=O)N/N=C(\C)[C@]2(O)Cc3c(O)c4c(c(O)c3[C@@H](OC3CC(N)C(O)C(C)O3)C2)C(=O)c2c(OC)cccc2C4=O)cc1 (stereo partly specified)
dose: 0.25 mg/kg/injection, schedule: Q01DX009 (ip), vehicle: water
  T/C: 129 % of control
dose: 0.5 mg/kg/injection, schedule: Q01DX009 (ip), vehicle: water
  T/C: 136 % of control
dose: 16.0 mg/kg/injection, schedule: Q01DX009 (ip), vehicle: water
  survivor count: 6 of 6 (2×)
dose: 96.0 mg/kg/injection, schedule: Q04DX003 (ip), vehicle: water
  survivor count: 1 of 3
dose: 192.0 mg/kg/injection, schedule: Q04DX003 (ip), vehicle: water
  survivor count: 0 of 3

## Cc1nc2c(N)cc(Cl)cc2[nH]1
dose: 200.0 mg/kg/injection, schedule: Q01DX005 (ip), vehicle: saline + Tween-80 + alcohol
  T/C: 146 % of control [5 of 6 alive]
dose: 400.0 mg/kg/injection, schedule: Q01DX005 (ip), vehicle: saline with Tween-80
  survivor count: 0 of 6

## CCOC(=O)c1cc(NO)c(=O)c2ccc(OC)cc2c1
dose: 100.0 mg/kg/injection, schedule: Q01DX005 (ip), vehicle: saline with Tween-80
  survivor count: 5 of 5

## Nc1nc(N)c2cc(Sc3cccc(C(F)(F)F)c3)ccc2n1
[1]
  T/C: 136 % of control
[2]
  survivor count: 3 of 6

## Cc1cn(C2CC(O)C(CO)O2)c(=O)[nH]c1=O (stereo unspecified)
dose: 32.0 mg/kg/injection, schedule: Q01DX009 (ip), vehicle: saline
  T/C: 96 [5 of 6 alive], 97, 100, 105 % of control
dose: 64.0 mg/kg/injection, schedule: Q01DX009 (ip), vehicle: saline
  T/C: 91, 100, 101, 109 % of control
dose: 128.0 mg/kg/injection, schedule: Q01DX009 (ip), vehicle: saline
  T/C: 91, 99, 101, 127 % of control
dose: 256.0 mg/kg/injection, schedule: Q01DX009 (ip), vehicle: saline
  T/C: 91, 92, 98, 102 % of control
dose: 500.0 mg/kg/injection, schedule: Q01DX009 (ip), vehicle: saline, evaluated on day 5
  T/C: 102 and 103 % of control
dose: 500.0 mg/kg/injection, schedule: Q01DX009 (ip), vehicle: saline, evaluated on day 30
  T/C: 96 and 109 % of control

## CC1(C)N=C(N)N=C(N)N1c1ccc(CCc2ccccc2)c(Cl)c1
dose: 6.25 mg/kg/injection, schedule: Q01DX009 (ip), vehicle: saline sonified
  T/C: 130 % of control [5 of 6 alive]
dose: 6.25 mg/kg/injection, schedule: Q01DX009 (ip), vehicle: saline with Tween-80
  T/C: 127 % of control
dose: 12.5 mg/kg/injection, schedule: Q01DX009 (ip), vehicle: saline sonified
  T/C: 125 % of control [5 of 6 alive]
dose: 25.0 mg/kg/injection, schedule: Q01DX009 (ip), vehicle: saline sonified
  survivor count: 3 of 6

## O=C1OCC/C1=C/OS(=O)(=O)C(F)(F)F
dose: 37.5 mg/kg/injection, schedule: Q01DX009 (ip), vehicle: distilled water + Tween-80
  T/C: 126 % of control
dose: 150.0 mg/kg/injection, schedule: Q01DX009 (ip), vehicle: distilled water + Tween-80
  survivor count: 1 of 6 and 3 of 5

## O=c1[nH]cnc2[nH]ccc12
[3]
  survivor count: 6 of 6
[4]
  survivor count: 1 of 6
[2]
  survivor count: 0 of 6

## CCCCCCCCCCCC(=O)NCC(=O)NC1C(C)OC(Nc2ncnc3nc[nH]c23)C(O)C1O (stereo unspecified)
dose: 0.25 mg/kg/injection, schedule: Q01DX009 (ip), vehicle: other
  T/C: 128 % of control
dose: 0.5 mg/kg/injection, schedule: Q01DX009 (ip), vehicle: other
  T/C: 133 % of control
dose: 1.0 mg/kg/injection, schedule: Q01DX009 (ip), vehicle: other
  T/C: 132 and 142 % of control
[5]
  T/C: 130 % of control
  survivor count: 5 of 6
dose: 8.0 mg/kg/injection, schedule: Q01DX009 (ip), vehicle: other
  survivor count: 4 of 6

## CN1c2ccccc2S(=O)(=O)n2c(CCc3ccccc3)nnc21
[6]
  survivor count: 6 of 6

## Nc1cc2c(cc1Br)-c1c(C(=O)O)cccc1C2O (stereo unspecified)
[6]
  T/C: 128 % of control
dose: 200.0 mg/kg/injection, schedule: Q01DX005 (ip), vehicle: sodium bicarbonate
  T/C: 134 % of control
[7]
  T/C: 126 % of control
dose: 400.0 mg/kg/injection, schedule: Q01DX005 (ip), vehicle: sodium bicarbonate
  T/C: 134 % of control
dose: 800.0 mg/kg/injection, schedule: Q01DX005 (ip), vehicle: sodium bicarbonate
  T/C: 130 % of control

## O=c1cc(C(F)(F)F)c2cc3c(cc2o1)NCCC3
[7]
  survivor count: 6 of 6

## CC1CNCC(C)N1Cc1ccccc1 (stereo unspecified)
dose: 200.0 mg/kg/injection, schedule: Q01DX005 (ip), vehicle: saline
  survivor count: 0 of 6

## COC1OC(COS(=O)(=O)c2ccc(C)cc2)C2OC(C)(C)OC12 (stereo unspecified)
[8]
  survivor count: 5 of 5

## CC1=CC2N(C=C1)C(c1ccc(Cl)cc1)=NON2c1cc(C)ccn1 (stereo unspecified)
dose: 50.0 mg/kg/injection, schedule: Q01DX005 (ip), vehicle: saline with Tween-80
  survivor count: 6 of 6
dose: 60.0 mg/kg/injection, schedule: Q01DX005 (ip), vehicle: saline with Tween-80
  survivor count: 6 of 6

## O=C1C(c2ccccc2)=C(c2ccccc2)/C1=C\c1ccc(Cl)cc1Cl
dose: 200.0 mg/kg/injection, schedule: Q01DX009 (ip), vehicle: Klucel (hydroxypropylcellulose) (HPC)
  survivor count: 6 of 6

## O=C1Nc2ccc(Br)cc2/C1=c1/sc2nc3ccccc3n2c1=O
dose: 12.5 mg/kg/injection, schedule: Q01DX005 (ip), vehicle: Klucel (hydroxypropylcellulose) (HPC)
  survivor count: 6 of 6
dose: 25.0 mg/kg/injection, schedule: Q01DX005 (ip), vehicle: Klucel (hydroxypropylcellulose) (HPC)
  survivor count: 6 of 6
dose: 50.0 mg/kg/injection, schedule: Q01DX005 (ip), vehicle: Klucel (hydroxypropylcellulose) (HPC)
  survivor count: 6 of 6
[8]
  survivor count: 0 of 6

## CC(NC(=O)OCc1ccccc1)C(=O)NC1C(O)OC(CO)C(O)C1O (stereo unspecified)
dose: 12.5 mg/kg/injection, schedule: Q01DX009 (ip), vehicle: water
  survivor count: 6 of 6
dose: 50.0 mg/kg/injection, schedule: Q01DX009 (ip), vehicle: other
  survivor count: 0 of 6
dose: 100.0 mg/kg/injection, schedule: Q01DX009 (ip), vehicle: other
  survivor count: 0 of 6
dose: 200.0 mg/kg/injection, schedule: Q01DX009 (ip), vehicle: other
  survivor count: 0 of 6

## NC1=NC(=S)C2N=C(N=Nc3ccc(C(=O)NC(CCC(=O)O)C(=O)O)cc3)N=C2N1 (stereo unspecified)
dose: 0.75 mg/kg/injection, schedule: Q01DX009 (ip), vehicle: Klucel (hydroxypropylcellulose) (HPC)
  T/C: 130 and 138 % of control
dose: 1.5 mg/kg/injection, schedule: Q01DX009 (ip), vehicle: Klucel (hydroxypropylcellulose) (HPC)
  T/C: 141 and 146 % of control
dose: 3.0 mg/kg/injection, schedule: Q01DX009 (ip), vehicle: Klucel (hydroxypropylcellulose) (HPC)
  T/C: 145 % of control

## Nc1ncnc2c1ncn2C(C=O)OC(C=O)CO (stereo unspecified)
dose: 10.0 mg/kg/injection, schedule: Q04DX003 (ip), vehicle: saline
  T/C: 131 % of control
dose: 15.0 mg/kg/injection, schedule: Q04DX003 (ip), vehicle: saline
  T/C: 127 % of control [5 of 6 alive]
dose: 18.7 mg/kg/injection, schedule: Q04DX003 (ip), vehicle: saline
  T/C: 140 % of control
dose: 50.0 mg/kg/injection, schedule: Q01DX009 (ip), vehicle: saline
  survivor count: 6 of 6

## S=C=NCCCCCCCCCCCCN=C=S
[9]
  T/C: 138 % of control
  survivor count: 2 of 6
dose: 25.0 mg/kg/injection, schedule: Q01DX009 (ip), vehicle: saline with Tween-80
  survivor count: 2 of 6

## Nc1nc2nc(CBr)c(CBr)nc2c(=O)[nH]1
[1]
  T/C: 125 % of control
[3]
  T/C: 127 % of control
[4]
  survivor count: 0 of 6
